Amino acid sequences for entries named in this document (tags omitted). A change or cut given only in a name is not applied to a line headed by its entry.
UniProt Q60662: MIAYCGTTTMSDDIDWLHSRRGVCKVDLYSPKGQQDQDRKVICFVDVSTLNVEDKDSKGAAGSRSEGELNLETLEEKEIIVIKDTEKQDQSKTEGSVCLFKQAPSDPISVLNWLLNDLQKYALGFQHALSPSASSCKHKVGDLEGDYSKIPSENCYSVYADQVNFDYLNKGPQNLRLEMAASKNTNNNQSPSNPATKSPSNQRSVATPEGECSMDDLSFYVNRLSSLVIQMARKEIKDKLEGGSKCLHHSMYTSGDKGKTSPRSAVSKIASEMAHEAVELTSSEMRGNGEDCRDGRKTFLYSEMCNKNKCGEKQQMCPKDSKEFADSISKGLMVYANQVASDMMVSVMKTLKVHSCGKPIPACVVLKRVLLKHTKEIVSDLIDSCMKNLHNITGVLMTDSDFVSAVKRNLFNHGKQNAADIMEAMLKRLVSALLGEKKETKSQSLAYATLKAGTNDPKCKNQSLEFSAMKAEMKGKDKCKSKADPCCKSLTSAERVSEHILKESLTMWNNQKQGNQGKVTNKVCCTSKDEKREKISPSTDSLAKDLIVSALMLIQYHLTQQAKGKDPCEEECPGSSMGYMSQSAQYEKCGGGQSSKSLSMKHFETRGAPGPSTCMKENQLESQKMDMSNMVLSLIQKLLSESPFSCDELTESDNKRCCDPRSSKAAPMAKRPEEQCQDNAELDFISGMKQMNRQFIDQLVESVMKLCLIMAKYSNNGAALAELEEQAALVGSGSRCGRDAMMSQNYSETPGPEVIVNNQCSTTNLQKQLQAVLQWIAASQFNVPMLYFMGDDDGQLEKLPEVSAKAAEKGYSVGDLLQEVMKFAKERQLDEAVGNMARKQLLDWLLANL
UniProt Q924X7: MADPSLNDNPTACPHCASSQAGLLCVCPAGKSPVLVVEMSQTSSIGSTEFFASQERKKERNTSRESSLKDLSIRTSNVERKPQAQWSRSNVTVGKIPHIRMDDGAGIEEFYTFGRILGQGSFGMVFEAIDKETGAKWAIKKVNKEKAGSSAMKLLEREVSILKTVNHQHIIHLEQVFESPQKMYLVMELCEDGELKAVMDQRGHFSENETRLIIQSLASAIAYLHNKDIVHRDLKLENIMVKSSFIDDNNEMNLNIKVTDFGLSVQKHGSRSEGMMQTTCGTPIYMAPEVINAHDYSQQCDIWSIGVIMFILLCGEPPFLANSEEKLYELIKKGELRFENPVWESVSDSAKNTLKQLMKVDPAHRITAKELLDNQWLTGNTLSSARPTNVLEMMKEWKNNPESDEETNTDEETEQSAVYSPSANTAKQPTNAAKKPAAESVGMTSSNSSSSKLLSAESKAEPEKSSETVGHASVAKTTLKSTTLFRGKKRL

According to PMC10245119:

Legend:
[1] = target: T1, AKAP3-FLAG (A-kinase anchoring protein 3, FLAG-tagged) (UniProt O88987); assay: co-IP; AKAP3-FLAG or FLAG-AKAP4-FLAG co-expressed with STK33-HA or STK33 KI-HA in HEK293T cells; lysis in Pierce IP lysis buffer; primary antibody overnight at 4 °C; protein A/G magnetic beads or G1 affinity resin; washes in PBST (0.5% Triton X-100); Western blot; reciprocal for STK33-HA
T1 sequence: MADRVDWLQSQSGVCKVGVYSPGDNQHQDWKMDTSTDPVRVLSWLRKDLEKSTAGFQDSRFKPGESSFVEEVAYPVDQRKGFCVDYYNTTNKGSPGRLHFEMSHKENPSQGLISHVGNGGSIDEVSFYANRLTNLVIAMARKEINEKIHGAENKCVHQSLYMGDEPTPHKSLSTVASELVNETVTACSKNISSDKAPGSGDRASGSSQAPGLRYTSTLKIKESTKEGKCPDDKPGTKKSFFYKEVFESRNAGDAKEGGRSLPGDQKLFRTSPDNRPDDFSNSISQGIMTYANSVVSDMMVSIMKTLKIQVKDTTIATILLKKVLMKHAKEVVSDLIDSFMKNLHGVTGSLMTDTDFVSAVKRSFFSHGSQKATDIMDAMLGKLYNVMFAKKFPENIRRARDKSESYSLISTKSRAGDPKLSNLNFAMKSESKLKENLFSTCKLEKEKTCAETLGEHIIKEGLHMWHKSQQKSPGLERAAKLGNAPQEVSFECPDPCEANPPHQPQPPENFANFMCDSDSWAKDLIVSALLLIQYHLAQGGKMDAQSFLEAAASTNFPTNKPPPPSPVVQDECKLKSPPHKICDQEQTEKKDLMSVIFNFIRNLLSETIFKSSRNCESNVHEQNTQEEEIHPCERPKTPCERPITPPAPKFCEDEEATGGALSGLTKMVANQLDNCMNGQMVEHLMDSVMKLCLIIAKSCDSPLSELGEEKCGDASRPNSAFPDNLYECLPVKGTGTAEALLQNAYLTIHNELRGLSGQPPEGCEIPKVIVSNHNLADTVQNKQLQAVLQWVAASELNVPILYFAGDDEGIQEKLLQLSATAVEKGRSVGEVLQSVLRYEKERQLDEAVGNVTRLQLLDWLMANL

[2] = target: FLAG-AKAP4-FLAG (A-kinase anchoring protein 4, FLAG-tagged at both ends) (UniProt Q60662); assay: as above

binding [1]	binding [2]	Substance
binds		STK33 KI-HA (C-terminally truncated STK33 as expressed in Stk33 KI/KI mice, HA-tagged) (domain or fragment)
	binds	STK33-HA (serine/threonine kinase 33, HA-tagged) (from UniProt Q924X7 1-491) (enzyme)

These are yes or no findings as the source states them, for the method shown. Binding seen in cells or lysates may run through a third protein. Binding can be weak; no strength is given. For some assays here: Sequences can lack the tags named with a protein.
